Measured values as given in PMC7257233.

Biological target: T1, His-tagged GMEB1 protein (GMEB1-His) (UniProt Q9Y692)
T1 sequence: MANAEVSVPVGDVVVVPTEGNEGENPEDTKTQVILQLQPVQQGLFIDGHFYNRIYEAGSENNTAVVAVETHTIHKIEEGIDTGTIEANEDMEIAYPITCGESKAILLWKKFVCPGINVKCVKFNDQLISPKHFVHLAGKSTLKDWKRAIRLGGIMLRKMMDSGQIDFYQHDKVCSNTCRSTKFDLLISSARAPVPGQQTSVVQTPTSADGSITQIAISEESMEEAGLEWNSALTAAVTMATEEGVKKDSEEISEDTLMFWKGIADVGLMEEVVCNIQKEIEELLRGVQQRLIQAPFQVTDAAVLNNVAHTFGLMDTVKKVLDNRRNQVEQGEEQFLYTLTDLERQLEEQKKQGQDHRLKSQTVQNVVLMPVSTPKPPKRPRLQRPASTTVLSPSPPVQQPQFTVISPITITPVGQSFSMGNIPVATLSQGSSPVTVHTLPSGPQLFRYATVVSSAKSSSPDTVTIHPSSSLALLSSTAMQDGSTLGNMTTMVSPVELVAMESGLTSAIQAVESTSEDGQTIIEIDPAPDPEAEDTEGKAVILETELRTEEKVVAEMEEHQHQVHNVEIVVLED
Experiment: co-IP; HEK293FT cells co-transfected with GMEB1-His and FLAG-tagged TRAF3 forms; lysed in 0.5% NP40 buffer (25 mM Tris-HCl pH 7.4, 150 mM NaCl, 5 mM EDTA); GMEB1-His precipitated with Ni-NTA beads; blot with anti-FLAG and anti-His

binding: binds
Substance: truncated TRAF3 (TRAF3ΔC-flag), lacking the TRAF-C domain (human) (domain or fragment)

These are yes or no findings as the source states them, for the method shown. In cells and extracts the contact can be indirect. A result given as binding can be weak or reduced; the word gives no strength. Sequences can lack the tags named with a protein.
